Results taken from patent publication US8293755B2, “Treatment of statin side effects using uridine derivatives” (Magral Pty Ltd., priority 2001, dated 2012).

Assay: Pilot clinical study: monitoring of blood serum components
Type: in vivo, human
Details: during the course of the trial
Excerpt: The design of the clinical trial involves a blood sample being taken from the patients prior to commencing medication administration and then on four further occasions during the 13 week trial, at around days 13-16, days 26-30, days 35-60 and finally at days 80-90. Patients were also required to submit answers to a questionnaire on approximately a weekly basis to enable patients to be scored for pain using the McGill Pain Questionnaire (Melzack, R., 1975 “The McGill Pain Questionnaire: Major Properties and Scoring Methods”. Pain 1:277-299, the disclosure of which is included herein in its entirety by way of reference) scales for Pain Rating Index (PRI) and Present Pain Intensity (PPI). In the PRI index, which comprises two scores, higher scores indicate increasing levels of pain. In the PPI index present pain is given a score of 0 to 5, where 0 represents no pain and 5 represents excruciating pain. Patients were also scored prior to commencement of the trial medication for fatigue using the Fatigue Impact Scale (Fisk, J. D. et al, 1994, “Measuring the functional impact of fatigue: Initial Validation of the Fatigue Impact Scale”, Clinical Infectious Disease, 18 (Suppl 1):S79-83, the disclosure of which is included herein in its entirety by way of reference). On the first week at the clinic, prior to commencement of the trial medication, details of the patients' statin medication were recorded and daily doses noted.
After the pre-trial medication blood samples and questionnaires were taken (T0d) patients commenced taking daily doses of 1600 mg of magnesium orotate, administered as 2×400 mg tablets, morning and evening.
Blood samples were taken prior to commencement of trial medication (T0d) and after approximately 14 (T14d), 28 (T28d), 42 (T42d) and 56 (T56d) days to determine individual to baseline levels of uridine (μg/ml) arising from magnesium orotate (MgOr) administration, to thereby monitor patient compliance. Blood samples taken were also used to determine creatine kinase concentration (CK) (units/L), gamma glutaryl transferase (GGT) concentration, aspartate amino transferase (AST) concentration and alanine aminotransferase concentration (ALT) (units/L), as well as serum lipid levels including total cholesterol concentration, high density lipoprotein (HDL-CHOL) concentration, low density lipoprotein (LDL-CHOL) concentration, tryglyceride (TRIG) concentration and levels of other serum components routinely tested for including magnesium ion concentration.

magnesium orotate
no significant alteration: high density lipoprotein (HDL-CHOL) concentration | low density lipoprotein (LDL-CHOL) concentration | magnesium ion concentration | total cholesterol concentration | tryglyceride (TRIG) concentration
